Reference: the supplement of paper PMC12819154, “High-throughput peptide-centric local stability assay extends protein–ligand identification to membrane proteins, tissues and bacteria” (Nature Structural & Molecular Biology, 2025)
Some of the results follow. Most values lie at the level of the controls, where differences are scatter.

Chains of the proteins cited; added tags and fusions are not shown. Lines headed by an entry give the natural chain unless they say otherwise; changes in a name come on top.
UniProt Q5T1R4, whole entry: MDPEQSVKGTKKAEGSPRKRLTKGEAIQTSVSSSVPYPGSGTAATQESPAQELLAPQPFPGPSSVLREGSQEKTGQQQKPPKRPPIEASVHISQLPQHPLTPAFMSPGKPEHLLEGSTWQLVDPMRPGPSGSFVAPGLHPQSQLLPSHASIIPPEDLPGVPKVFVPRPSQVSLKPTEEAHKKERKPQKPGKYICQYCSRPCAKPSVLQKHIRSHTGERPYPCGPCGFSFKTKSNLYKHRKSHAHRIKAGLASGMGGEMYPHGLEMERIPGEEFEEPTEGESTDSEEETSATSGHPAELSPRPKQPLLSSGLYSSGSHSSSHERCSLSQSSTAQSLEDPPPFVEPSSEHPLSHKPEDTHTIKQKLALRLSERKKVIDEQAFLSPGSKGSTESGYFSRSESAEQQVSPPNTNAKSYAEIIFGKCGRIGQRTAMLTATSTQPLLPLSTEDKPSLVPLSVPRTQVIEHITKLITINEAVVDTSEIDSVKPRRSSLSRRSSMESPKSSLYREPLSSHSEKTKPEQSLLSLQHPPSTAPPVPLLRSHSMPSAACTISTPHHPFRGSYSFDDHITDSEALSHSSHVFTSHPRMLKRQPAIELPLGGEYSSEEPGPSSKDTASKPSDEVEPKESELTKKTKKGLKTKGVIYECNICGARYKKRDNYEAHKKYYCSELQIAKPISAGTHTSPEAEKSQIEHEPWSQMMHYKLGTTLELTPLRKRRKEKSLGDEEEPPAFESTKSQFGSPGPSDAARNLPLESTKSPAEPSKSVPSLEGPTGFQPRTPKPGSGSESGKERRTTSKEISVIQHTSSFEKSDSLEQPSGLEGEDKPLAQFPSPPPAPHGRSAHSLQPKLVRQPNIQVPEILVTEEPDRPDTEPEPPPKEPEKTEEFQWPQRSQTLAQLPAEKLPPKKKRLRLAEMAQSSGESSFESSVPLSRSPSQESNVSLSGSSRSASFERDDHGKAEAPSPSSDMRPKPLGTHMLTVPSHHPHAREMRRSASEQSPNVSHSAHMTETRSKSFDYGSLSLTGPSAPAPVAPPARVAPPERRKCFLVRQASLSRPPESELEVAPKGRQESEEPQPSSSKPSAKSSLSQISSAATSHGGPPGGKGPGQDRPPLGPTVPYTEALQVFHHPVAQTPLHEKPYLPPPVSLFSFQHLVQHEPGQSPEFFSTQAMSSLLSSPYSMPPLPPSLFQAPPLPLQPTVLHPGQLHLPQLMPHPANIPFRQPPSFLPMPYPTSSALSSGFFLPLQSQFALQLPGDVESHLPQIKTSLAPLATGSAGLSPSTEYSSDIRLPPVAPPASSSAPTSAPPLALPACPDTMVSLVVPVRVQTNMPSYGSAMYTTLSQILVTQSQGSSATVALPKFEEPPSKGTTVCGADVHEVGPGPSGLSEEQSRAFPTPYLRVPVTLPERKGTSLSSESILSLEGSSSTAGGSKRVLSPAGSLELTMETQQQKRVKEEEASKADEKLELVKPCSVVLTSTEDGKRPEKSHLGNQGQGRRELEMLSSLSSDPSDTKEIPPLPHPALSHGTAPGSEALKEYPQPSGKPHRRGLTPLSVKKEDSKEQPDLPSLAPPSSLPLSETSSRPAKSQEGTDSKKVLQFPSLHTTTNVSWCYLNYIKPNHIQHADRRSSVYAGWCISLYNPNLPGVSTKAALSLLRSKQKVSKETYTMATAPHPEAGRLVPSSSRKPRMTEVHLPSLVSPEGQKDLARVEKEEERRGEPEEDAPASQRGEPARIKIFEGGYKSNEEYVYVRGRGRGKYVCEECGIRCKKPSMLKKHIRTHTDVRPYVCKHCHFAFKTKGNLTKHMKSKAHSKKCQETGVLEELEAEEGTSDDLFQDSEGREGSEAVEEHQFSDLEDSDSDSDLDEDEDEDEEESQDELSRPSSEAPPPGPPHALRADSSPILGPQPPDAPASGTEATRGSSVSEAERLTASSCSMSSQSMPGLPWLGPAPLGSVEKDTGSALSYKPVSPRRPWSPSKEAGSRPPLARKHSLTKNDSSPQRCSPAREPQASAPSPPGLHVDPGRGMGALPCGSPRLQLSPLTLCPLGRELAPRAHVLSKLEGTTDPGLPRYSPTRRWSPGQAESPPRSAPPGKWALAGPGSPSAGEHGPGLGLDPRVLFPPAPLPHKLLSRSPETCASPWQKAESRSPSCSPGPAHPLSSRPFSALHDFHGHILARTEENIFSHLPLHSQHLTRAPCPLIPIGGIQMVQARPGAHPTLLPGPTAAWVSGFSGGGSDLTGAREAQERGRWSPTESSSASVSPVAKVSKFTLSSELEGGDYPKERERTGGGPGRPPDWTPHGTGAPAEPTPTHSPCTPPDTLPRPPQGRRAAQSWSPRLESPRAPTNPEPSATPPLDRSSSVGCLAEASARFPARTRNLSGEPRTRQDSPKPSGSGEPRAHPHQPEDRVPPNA
UniProt Q5HYM0: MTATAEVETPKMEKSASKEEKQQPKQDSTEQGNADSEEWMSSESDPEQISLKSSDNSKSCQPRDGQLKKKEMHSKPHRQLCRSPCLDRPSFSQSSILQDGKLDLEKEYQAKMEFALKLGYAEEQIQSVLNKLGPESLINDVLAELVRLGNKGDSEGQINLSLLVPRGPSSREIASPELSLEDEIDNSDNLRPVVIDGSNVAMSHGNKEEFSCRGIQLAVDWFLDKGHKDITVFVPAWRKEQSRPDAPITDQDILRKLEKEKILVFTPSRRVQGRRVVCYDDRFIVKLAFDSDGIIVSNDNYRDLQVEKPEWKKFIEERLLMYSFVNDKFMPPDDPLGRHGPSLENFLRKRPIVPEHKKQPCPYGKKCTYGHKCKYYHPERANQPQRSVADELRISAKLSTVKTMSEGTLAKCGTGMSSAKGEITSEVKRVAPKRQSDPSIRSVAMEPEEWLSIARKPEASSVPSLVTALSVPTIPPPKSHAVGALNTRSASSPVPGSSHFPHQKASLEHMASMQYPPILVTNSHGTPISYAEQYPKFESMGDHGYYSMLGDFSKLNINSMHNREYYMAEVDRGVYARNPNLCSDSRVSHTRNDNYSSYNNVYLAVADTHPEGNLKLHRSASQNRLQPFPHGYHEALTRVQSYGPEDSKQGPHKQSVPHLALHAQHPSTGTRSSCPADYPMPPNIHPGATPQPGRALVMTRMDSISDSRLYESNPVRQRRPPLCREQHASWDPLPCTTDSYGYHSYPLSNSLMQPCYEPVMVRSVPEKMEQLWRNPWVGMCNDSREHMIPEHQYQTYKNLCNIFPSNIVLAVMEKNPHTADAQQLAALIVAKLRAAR
UniProt Q4VC31: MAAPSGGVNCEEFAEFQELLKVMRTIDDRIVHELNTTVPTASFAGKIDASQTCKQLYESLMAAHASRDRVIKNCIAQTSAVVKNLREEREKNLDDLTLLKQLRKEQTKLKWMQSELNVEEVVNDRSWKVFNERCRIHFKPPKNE
UniProt Q4G0M1: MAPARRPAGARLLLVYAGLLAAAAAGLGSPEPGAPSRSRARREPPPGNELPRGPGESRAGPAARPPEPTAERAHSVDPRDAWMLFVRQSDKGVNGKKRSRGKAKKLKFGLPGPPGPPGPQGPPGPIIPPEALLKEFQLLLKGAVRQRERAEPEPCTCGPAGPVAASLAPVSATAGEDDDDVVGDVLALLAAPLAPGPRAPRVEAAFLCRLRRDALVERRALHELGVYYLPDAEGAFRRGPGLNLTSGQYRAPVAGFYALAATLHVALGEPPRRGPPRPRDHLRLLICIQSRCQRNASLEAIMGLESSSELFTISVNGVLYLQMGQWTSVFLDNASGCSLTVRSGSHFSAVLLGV
UniProt Q5JTW2: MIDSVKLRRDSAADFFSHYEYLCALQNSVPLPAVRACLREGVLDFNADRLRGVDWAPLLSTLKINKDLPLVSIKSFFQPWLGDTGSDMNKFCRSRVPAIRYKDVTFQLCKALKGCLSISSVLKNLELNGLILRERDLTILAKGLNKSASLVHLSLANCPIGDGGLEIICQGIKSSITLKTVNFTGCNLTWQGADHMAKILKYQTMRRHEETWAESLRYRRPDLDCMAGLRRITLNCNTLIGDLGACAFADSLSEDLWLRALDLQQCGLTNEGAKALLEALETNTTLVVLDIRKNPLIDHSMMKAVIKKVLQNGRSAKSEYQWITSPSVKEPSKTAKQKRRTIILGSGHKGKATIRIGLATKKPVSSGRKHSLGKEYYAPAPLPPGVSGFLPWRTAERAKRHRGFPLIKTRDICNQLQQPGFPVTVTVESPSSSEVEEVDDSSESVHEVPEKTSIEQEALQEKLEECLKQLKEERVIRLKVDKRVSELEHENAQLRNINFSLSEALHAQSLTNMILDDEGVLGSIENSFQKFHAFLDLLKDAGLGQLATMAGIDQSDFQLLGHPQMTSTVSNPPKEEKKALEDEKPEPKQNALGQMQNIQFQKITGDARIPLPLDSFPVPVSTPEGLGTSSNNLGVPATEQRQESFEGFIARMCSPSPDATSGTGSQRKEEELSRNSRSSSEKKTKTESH
UniProt Q5JUR7: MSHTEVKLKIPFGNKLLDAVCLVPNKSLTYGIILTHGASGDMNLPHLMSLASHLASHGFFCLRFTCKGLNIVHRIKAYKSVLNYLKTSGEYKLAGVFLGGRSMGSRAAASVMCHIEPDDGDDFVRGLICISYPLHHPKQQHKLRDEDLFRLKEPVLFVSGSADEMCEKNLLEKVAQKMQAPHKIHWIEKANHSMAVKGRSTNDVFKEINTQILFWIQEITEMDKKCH
UniProt Q569H4: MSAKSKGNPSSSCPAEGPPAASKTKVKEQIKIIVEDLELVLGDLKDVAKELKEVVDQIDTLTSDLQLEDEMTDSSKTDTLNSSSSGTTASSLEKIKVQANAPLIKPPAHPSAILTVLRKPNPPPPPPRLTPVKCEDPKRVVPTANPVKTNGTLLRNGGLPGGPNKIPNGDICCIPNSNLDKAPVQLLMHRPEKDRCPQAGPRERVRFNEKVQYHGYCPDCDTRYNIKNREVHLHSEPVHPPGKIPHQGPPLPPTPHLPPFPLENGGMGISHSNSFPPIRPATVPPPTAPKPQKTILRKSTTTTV
UniProt Q56A73: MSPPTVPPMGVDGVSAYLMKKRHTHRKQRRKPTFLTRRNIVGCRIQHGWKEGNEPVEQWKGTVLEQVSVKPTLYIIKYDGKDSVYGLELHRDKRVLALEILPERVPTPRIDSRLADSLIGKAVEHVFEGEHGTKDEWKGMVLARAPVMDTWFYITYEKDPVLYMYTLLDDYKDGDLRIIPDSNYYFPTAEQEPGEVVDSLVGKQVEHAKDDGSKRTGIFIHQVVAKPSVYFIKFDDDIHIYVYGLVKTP
UniProt Q53GI3: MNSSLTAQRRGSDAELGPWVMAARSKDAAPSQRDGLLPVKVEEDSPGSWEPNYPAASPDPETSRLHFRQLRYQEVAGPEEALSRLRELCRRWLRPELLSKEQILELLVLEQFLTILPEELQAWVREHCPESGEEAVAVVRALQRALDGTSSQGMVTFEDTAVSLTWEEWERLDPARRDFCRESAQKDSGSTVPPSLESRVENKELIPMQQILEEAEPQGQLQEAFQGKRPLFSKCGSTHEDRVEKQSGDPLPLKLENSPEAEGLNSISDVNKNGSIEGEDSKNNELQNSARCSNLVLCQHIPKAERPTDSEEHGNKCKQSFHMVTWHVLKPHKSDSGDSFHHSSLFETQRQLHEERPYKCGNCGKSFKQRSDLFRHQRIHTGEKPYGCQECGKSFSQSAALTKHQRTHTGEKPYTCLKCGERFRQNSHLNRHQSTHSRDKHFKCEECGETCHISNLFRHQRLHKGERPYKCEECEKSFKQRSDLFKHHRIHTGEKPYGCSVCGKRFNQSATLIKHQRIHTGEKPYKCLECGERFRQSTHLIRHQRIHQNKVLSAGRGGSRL
UniProt Q5TA31: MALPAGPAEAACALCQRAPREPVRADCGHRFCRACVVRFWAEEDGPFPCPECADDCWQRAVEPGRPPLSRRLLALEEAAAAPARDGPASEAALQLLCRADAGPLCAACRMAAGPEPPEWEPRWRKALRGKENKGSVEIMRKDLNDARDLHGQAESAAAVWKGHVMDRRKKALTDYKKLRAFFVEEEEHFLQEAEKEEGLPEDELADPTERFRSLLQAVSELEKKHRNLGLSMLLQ
UniProt Q5JPH6: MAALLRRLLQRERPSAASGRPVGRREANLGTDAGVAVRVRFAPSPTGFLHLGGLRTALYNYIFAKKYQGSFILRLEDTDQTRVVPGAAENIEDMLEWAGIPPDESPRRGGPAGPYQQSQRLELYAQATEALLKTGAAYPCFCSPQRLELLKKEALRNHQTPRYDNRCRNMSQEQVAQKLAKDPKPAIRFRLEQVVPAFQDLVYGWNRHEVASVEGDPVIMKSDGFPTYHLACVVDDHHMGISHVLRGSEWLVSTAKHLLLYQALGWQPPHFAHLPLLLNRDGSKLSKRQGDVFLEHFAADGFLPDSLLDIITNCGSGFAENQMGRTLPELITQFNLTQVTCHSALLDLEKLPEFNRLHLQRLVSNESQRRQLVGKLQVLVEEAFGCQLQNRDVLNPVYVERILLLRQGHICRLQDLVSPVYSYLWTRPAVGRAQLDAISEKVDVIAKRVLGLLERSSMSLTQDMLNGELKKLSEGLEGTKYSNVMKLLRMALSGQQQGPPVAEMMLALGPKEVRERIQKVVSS

What follows are targets tested with Cc1nc(Nc2ncc(C(=O)Nc3c(C)cccc3Cl)s2)cc(N2CCN(CCO)CC2)n1 [dasatinib] (assay: log2 fold change of tryptic peptide abundance, ligand vs vehicle (limited proteolysis) (log2 ratio); higher = more trypsin-susceptible (destabilized)). Settings: ligand concentration: 5 uM; sample: K562 cleared lysate.

Target | log2 fold change
DALRD3 (peptide sequence: SHALEELTSANDGR, peptide start residue: 193) (UniProt Q5D0E6) | -0.0758
UniProt Q53F19 (peptide sequence: NVALDRDMMKK, peptide start residue: 108) | 0.279
C3orf38 (peptide sequence: TEDIHLFQQQVK, peptide start residue: 117) (UniProt Q5JPI3) | 0.15
UniProt Q5FWF4 (peptide sequence: KVQTISDCEK, peptide start residue: 677) | -0.792
UniProt Q5T1R4 (peptide sequence: SNEEYVYVR, peptide start residue: 2073) | -0.0268
UniProt Q5HYM0 (peptide sequence: RQSDPSIR, peptide start residue: 489) | 0.306
TUBB8 (peptide sequence: AVLVDLEPGTMDSVR, peptide start residue: 63) (UniProt Q3ZCM7) | -0.277
UniProt Q53HC9 (peptide sequence: FLVGTQSLK, peptide start residue: 30) | -0.164
TMEM41B (peptide sequence: SQLGAHHTTPVGDGAAGTR, peptide start residue: 10) (UniProt Q5BJD5) | 0.0691
SFT2D3 (peptide sequence: QLQEYLAQGK, peptide start residue: 7) (UniProt Q587I9) | 0.0426
UniProt Q4KMZ1 (peptide sequence: DRTTGELEQEDDSCHR, peptide start residue: 235) | -0.0832
LDLRAP1 (peptide sequence: YLGMTLVEQPK, peptide start residue: 52) (UniProt Q5SW96) | 0.376
GLE1 (peptide sequence: LYAAIIQLR, peptide start residue: 576) (UniProt Q53GS7) | 0.257
CRY2 (peptide sequence: LHDNPALLAAVR, peptide start residue: 34) (UniProt Q49AN0) | -0.283
RNASEH2B (peptide sequence: LSDEPVEAKEDYTK, peptide start residue: 251) (UniProt Q5TBB1) | 0.0792
CCDC58 (peptide sequence: VIKNCIAQTSAVVK, peptide start residue: 70) (UniProt Q4VC31) | 0.167
UniProt Q4G0M1 (peptide sequence: EFQLLLK, peptide start residue: 135) | -0.0799
CEP78 (peptide sequence: HEETWAESLR, peptide start residue: 208) (UniProt Q5JTW2) | -0.477
ZBED5 (peptide sequence: VGILQSEDK, peptide start residue: 65) (UniProt Q49AG3) | 0.118

Target | log2 fold change
UBR4 (peptide sequence: DLDPEVFQR, peptide start residue: 2564) (UniProt Q5T4S7) | 0.0907
ANO6 (peptide sequence: NMGVIAER, peptide start residue: 889) (UniProt Q4KMQ2) | -0.126
NA (peptide sequence: GAQQAYDAPAPSR, peptide start residue: 479) (UniProt Q4G0T1) | -0.0675
UniProt Q5JTJ3 (peptide sequence: CLDENLEDASQCKK, peptide start residue: 68) | 0.148
UniProt Q53TQ3 (peptide sequence: HASDDDDAESR, peptide start residue: 357) | 0.764
FASTKD1 (peptide sequence: ITQELTFLHFQR, peptide start residue: 381) (UniProt Q53R41) | -0.441
UniProt Q5JUR7 (peptide sequence: LKIPFGNK, peptide start residue: 8) | -0.103
PRR16 (peptide sequence: LTPVKCEDPKR, peptide start residue: 129) (UniProt Q569H4) | 0.314
TMEM63B (peptide sequence: SNGRPPTAAAVPK, peptide start residue: 755) (UniProt Q5T3F8) | 0.469
SPIN4 (peptide sequence: VLALEILPERVPTPR, peptide start residue: 95) (UniProt Q56A73) | 0.475
UniProt Q53GI3 (peptide sequence: CEECGETCHISNLFR, peptide start residue: 444) | 0.371
UniProt Q5EBL2 (peptide sequence: HVHTGERPHACGVCGK, peptide start residue: 558) | 0.416
GRIPAP1 (peptide sequence: KAMLDELAMETLQEK, peptide start residue: 430) (UniProt Q4V328) | 0.287
UniProt Q53FT3 (peptide sequence: SGEGSQHPFGAMNIVR, peptide start residue: 89) | -0.0919
ZFYVE27 (peptide sequence: SSMGATAPEAQR, peptide start residue: 385) (UniProt Q5T4F4) | -0.00408
PHF19 (peptide sequence: DSYGATSHLPNKGALAK, peptide start residue: 12) (UniProt Q5T6S3) | 0.13
RNF187 (peptide sequence: SLLQAVSELEK, peptide start residue: 213) (UniProt Q5TA31) | -0.119
EARS2 (peptide sequence: DVLNPVYVER, peptide start residue: 392) (UniProt Q5JPH6) | 0.328

Reformatted in CSV form: part of the list above.
Target,log2 fold change
"UBR4 (peptide sequence: DLDPEVFQR, peptide start residue: 2564) (UniProt Q5T4S7)",0.0907
"NA (peptide sequence: GAQQAYDAPAPSR, peptide start residue: 479) (UniProt Q4G0T1)",-0.0675
"UniProt Q5JTJ3 (peptide sequence: CLDENLEDASQCKK, peptide start residue: 68)",0.148
"PRR16 (peptide sequence: LTPVKCEDPKR, peptide start residue: 129) (UniProt Q569H4)",0.314
"UniProt Q5EBL2 (peptide sequence: HVHTGERPHACGVCGK, peptide start residue: 558)",0.416
"UniProt Q53FT3 (peptide sequence: SGEGSQHPFGAMNIVR, peptide start residue: 89)",-0.0919
"ZFYVE27 (peptide sequence: SSMGATAPEAQR, peptide start residue: 385) (UniProt Q5T4F4)",-0.00408
"PHF19 (peptide sequence: DSYGATSHLPNKGALAK, peptide start residue: 12) (UniProt Q5T6S3)",0.13
"RNF187 (peptide sequence: SLLQAVSELEK, peptide start residue: 213) (UniProt Q5TA31)",-0.119
"EARS2 (peptide sequence: DVLNPVYVER, peptide start residue: 392) (UniProt Q5JPH6)",0.328
